# Where two headings read alike, the source gives them in different places.
# Experiments:
# [1] = tested on: Trichophyton rubrum I/95 (patient isolate); assay: Anti-mycotic activity assay in pathogen suspension (optical density at 600 nm); assay type: cell-based; settings: light or radiation study; antimycotic activity against Trichophyton rubrum; with irradiation, peak wavelength 519 nm; read-out: Tru IC50 with irradiation
# Method: For determining the IC50 of the anti-mycotic activity of compounds, the human pathogen Candida albicans, strain DSM 1386, or clinical isolates of Trichophyton rubrum obtained from patient samples were used.
# Trichophyton rubrum I/95 (patient isolate) was cultivated for 1 week on GPY (0.1% glucose, 0.05% petone, 0.01 yeast extract, 1.5% agar) at 28°C. A suspension of 5x10^4 spores/ml in M186 (1% glucose, 0.5% peptone from soybeans, 0.3% yeast extract, 0.3% malt extract) was prepared and added to each well of a microplate containing one of the pharmaceutical compounds, which were pipetted in triplicates for a final concentration of […] and 100 µM. The wells were irradiated using the custom-made light source with a peak wavelength of 519 nm. Handling of the test compounds and well plates took place in a darkened room equipped with a red-light LED to protect them from green light. After incubation for 72 h at 28 °C and 120 rpm the optical density at 600 nm was measured using the microplate reader Tecan Infinite M200.
# [2] = tested on: Trichophyton rubrum I/95 (patient isolate); assay: as above; assay type: cell-based; settings: light or radiation study; antimycotic activity against Trichophyton rubrum; without irradiation (dark); read-out: Tru IC50 without irradiation
smiles,measurement,setting,value
"Clc1ccccc1C(c1ccccc1)(c1ccccc1)n1ccnc1 [Clotrimazol, reference compound]",IC50,[1],109 ± 51 nM
same,IC50,[2],114 ± 61 nM

# — patent EP4551202B1, “NAPHTHAZARIN DERIVATIVES FOR TREATMENT OF ONYCHOMYCOSIS” (Christian-Albrechts-Universität zu Kiel, priority 2022, dated 2024)
